From PubChem BioAssay AID761 (NMMLSC, 2007)
The whole screen tested about 190,000 compounds, of which about 400 (0.21%) were called active. The source calls these results inconclusive, neither active nor inactive.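 How the source made its calls: active means percent activity GTP binding at least 20 points away from the 100% baseline, either down as inhibitor or up as activator; inconclusive means compound flagged as likely green fluorescent from well-wide comparison; inactive means the rest.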

Protein sequences, listed by entry. Tags and fused reporters are not part of them.
UniProt P60953, whole entry: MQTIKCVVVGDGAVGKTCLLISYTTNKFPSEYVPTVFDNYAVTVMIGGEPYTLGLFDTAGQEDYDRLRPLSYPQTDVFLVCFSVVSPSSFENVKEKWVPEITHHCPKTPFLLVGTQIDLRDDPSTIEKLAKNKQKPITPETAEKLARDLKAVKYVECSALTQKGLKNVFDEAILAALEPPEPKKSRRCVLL

These molecules were tested against Cell division control protein 42 homolog (Homo sapiens) (UniProt P60953) (assay: wildtype Cdc42 fluorescent GTP binding changes, either direction – biochemical, multiplex bead flow cytometry, Bodipy-GTP, primary screen (AID 761;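 further: median bead fluorescence of bound Bodipy-FL-GTP at 100 nM; 0% = excess unlabeled GTP control and 100% = no compound control; below 100% means less GTP binding so inhibitor and above means activator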)). Conditions: GST-Cdc42 beads, at 10 µM, actives lie on both sides.

| Structure (SMILES) | percent activity (GTP binding) |
| --- | --- |
| CCC(CO)(C(=O)OC1CN2CCC1CC2)c1ccccc1 (stereo unspecified) | inconclusive: 91% |
